Experimental data taken from PMC12711061, “Far-infrared irradiation attenuates vessel contraction by activating SERCA2 through disruption of SERCA2 and PLN interaction” (PLOS One, 2025).
These are yes or no findings as the source states them, for the method shown. In cells and extracts the contact can be indirect. Some binding calls cover weakened binding; strength is not graded here.

The chains behind the UniProt entries cited, without tags or fusion partners. Where a name states a change or a piece, a line headed by the entry shows the natural chain unless it says otherwise. A line that says so, or that is headed by a name, gives the form on record, which may keep a tag or linker.
YFP-tagged human SERCA2a (P16615, form named): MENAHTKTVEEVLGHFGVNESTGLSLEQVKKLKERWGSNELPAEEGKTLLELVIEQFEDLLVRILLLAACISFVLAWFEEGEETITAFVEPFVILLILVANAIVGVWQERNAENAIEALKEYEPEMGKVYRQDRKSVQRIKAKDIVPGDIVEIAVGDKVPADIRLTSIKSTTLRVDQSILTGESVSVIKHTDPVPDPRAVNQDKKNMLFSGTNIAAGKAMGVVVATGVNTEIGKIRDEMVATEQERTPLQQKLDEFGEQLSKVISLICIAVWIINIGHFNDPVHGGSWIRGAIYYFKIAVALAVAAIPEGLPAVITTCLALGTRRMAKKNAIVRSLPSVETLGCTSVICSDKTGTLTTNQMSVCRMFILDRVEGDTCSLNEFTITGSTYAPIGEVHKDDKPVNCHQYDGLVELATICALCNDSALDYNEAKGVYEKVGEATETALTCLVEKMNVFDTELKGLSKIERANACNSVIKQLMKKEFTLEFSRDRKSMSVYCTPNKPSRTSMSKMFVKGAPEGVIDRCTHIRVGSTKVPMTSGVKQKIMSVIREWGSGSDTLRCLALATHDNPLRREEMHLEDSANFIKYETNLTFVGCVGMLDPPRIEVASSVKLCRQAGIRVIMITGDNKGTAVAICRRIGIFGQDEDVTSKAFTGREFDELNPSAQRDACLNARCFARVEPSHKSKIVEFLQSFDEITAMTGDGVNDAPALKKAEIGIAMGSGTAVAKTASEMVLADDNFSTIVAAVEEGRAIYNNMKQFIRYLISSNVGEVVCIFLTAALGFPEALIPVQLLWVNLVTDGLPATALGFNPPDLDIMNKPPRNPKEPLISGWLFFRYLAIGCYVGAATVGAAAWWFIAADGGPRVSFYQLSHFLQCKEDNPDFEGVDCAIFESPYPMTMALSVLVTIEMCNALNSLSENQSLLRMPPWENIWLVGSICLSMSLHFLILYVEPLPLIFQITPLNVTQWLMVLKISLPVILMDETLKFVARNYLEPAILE
UniProt P26678: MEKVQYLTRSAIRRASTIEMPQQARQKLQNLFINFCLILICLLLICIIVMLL

Molecular target: YFP-tagged human SERCA2a (human) (UniProt P16615)
Experiment: FRET or BRET; HEK293T cells co-transfected with CFP-tagged PLN and YFP-tagged SERCA2a; microplate reader, excitation 480 nm, emission 530 nm, fluorescence normalised to total protein; cells kept 30 min at RT, irradiated with FIR ray 30 min at RT, or kept 30 min at 39°C

binding: binds
Substance: CFP-tagged human PLN (from UniProt P26678 1-52)
